Measured values: article PMC6769930
These are yes or no findings as the source states them, for the method shown. For part of these data: Binding seen in cells or lysates may run through a third protein. Some results given as binding are weak or reduced against the parent protein; the word gives no strength. For part of these data: Sequences can lack the tags named with a protein.

Chains of the proteins cited; added tags and fusions are not shown.
UniProt Q14151: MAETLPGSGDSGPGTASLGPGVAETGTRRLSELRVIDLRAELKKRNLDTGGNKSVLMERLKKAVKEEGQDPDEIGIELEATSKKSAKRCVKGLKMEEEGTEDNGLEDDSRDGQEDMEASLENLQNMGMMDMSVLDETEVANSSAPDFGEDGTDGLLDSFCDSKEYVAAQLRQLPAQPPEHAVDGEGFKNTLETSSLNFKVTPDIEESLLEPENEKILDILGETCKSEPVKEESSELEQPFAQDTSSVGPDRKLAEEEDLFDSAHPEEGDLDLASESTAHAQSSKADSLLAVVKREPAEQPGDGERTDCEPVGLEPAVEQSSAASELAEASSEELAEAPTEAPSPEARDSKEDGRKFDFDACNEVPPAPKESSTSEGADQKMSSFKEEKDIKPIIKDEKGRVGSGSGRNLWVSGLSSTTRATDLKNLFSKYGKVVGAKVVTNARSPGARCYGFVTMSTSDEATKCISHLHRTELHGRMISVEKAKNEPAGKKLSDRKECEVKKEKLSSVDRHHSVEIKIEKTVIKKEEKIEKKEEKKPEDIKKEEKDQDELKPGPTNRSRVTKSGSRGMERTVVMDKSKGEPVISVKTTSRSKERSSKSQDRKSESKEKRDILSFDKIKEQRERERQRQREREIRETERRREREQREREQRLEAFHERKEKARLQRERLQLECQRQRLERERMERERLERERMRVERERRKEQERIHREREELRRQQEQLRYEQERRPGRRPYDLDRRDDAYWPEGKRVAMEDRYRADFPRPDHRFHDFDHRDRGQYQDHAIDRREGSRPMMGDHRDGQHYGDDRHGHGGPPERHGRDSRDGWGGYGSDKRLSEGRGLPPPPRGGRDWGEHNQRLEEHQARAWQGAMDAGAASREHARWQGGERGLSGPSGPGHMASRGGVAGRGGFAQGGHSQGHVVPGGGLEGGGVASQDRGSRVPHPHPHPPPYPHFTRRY
UniProt Q8NE71: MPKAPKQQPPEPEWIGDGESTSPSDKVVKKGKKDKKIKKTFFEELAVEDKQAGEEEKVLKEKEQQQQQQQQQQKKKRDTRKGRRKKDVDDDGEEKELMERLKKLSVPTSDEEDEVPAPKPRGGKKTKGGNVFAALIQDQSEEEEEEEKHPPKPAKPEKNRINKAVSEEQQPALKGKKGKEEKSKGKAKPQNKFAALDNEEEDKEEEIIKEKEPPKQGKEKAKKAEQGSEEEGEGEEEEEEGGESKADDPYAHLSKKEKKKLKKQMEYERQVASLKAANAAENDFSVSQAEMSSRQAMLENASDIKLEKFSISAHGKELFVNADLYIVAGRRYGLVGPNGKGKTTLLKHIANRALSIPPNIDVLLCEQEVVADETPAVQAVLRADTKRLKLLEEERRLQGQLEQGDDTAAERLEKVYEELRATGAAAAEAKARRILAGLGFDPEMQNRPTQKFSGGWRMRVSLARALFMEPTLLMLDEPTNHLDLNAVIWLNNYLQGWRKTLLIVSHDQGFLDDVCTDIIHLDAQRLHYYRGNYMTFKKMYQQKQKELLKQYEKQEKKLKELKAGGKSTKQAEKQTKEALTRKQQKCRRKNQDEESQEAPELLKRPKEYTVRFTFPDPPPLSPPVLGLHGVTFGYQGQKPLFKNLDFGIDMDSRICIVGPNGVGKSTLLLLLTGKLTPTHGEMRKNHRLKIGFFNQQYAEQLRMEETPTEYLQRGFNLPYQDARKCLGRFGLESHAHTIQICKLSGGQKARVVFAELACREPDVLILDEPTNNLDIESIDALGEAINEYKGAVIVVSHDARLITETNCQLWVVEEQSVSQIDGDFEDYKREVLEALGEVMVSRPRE
UniProt P17931: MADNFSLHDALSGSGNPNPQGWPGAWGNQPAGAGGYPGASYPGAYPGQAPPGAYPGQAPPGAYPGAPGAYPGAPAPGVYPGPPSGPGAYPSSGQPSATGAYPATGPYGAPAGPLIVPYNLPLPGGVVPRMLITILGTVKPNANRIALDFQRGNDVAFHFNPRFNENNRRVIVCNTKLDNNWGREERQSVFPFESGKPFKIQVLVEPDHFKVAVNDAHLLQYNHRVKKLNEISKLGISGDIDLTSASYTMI

Assays:
[1] = target: T1, human endoglin, full-length, from pcEXV-HA-EngFL (human) (UniProt P17813); test: co-IP; CHO-K1 cells co-transfected with pcEXV-HA-EngFL and pcDNA3.1-Gal-3; lysis in 1% NP-40, 150 mM NaCl, 50 mM Tris pH 7.4; IP with anti-endoglin or anti-galectin-3 on protein G magnetic beads overnight at 4 °C; Western blot
T1 sequence: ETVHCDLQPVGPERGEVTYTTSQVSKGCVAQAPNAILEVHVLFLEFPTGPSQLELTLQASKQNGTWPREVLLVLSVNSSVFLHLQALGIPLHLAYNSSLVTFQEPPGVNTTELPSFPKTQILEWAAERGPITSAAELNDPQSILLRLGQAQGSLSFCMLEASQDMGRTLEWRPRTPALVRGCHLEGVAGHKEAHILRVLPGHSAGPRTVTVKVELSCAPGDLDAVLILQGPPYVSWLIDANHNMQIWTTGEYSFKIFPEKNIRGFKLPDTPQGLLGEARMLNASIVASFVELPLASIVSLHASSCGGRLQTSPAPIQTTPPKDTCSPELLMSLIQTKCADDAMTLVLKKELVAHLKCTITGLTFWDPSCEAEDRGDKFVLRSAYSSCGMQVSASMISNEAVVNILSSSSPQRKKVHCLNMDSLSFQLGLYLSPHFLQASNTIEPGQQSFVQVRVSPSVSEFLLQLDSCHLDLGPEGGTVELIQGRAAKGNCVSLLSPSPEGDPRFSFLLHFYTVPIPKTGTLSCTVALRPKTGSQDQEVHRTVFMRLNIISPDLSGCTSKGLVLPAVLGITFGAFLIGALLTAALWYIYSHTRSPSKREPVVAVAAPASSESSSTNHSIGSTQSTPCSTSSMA

[2] = target: Scaffold attachment factor B2 (SAFB2) (human) (UniProt Q14151); test: peptide or protein array; ProtoArray human protein Microarray v5.0 (over 9000 human proteins arrayed) probed with recombinant sEng in two replicates; detection with anti-endoglin mAb SN6h and HRP secondary antibody; hits with Z-score >=2.0 in both arrays; both purified
[3] = target: ATP-binding cassette, sub-family F (GCN20), member 1 (ABCF1) (human) (UniProt Q8NE71); test: as above
[4] = target: T2, Putative E3 ubiquitin-protein ligase SH3RF2 (human) (UniProt Q8TEC5); test: as above
T2 sequence: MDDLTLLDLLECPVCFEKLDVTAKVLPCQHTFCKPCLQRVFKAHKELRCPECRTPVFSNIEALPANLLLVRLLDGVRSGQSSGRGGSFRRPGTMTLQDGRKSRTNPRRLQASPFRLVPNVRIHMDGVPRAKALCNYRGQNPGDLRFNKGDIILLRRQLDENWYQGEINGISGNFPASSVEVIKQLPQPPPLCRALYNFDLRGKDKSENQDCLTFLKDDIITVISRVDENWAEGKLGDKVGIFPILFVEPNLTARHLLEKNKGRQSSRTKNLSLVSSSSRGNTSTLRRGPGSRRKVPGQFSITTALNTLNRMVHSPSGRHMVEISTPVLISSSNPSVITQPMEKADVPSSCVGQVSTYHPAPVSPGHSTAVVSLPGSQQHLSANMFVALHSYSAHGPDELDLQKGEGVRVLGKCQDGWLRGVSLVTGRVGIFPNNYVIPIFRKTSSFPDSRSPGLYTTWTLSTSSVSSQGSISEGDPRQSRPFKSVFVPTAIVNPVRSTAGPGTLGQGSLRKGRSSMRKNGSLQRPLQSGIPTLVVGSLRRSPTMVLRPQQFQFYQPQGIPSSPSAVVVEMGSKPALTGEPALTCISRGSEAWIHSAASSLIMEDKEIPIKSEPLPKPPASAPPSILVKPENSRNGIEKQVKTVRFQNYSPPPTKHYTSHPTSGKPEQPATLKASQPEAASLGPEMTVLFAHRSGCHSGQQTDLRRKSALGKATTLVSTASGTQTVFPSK

Sciellin (SCEL) (human) = target: T3, Sciellin (SCEL) (human) (UniProt O95171); test: as above
T3 sequence: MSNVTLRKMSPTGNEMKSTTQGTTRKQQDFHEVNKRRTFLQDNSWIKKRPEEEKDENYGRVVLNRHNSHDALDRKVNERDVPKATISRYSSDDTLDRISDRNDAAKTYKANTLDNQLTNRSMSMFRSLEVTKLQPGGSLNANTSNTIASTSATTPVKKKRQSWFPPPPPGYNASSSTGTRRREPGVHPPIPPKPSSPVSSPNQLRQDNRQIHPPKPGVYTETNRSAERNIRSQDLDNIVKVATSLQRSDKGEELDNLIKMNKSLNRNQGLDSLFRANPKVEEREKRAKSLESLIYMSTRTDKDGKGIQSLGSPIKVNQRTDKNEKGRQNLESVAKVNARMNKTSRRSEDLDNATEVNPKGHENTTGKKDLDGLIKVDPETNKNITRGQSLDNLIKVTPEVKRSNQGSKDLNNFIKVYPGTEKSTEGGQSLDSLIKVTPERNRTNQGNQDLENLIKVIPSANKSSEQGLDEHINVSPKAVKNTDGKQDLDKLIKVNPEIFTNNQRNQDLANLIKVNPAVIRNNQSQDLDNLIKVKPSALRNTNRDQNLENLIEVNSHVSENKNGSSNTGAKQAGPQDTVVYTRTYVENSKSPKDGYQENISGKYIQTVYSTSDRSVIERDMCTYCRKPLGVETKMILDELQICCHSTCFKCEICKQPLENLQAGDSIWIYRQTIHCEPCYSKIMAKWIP

[5] = target: T4, Stromal membrane-associated protein 1 (SMAP1) (human) (UniProt Q8IYB5); test: as above
T4 sequence: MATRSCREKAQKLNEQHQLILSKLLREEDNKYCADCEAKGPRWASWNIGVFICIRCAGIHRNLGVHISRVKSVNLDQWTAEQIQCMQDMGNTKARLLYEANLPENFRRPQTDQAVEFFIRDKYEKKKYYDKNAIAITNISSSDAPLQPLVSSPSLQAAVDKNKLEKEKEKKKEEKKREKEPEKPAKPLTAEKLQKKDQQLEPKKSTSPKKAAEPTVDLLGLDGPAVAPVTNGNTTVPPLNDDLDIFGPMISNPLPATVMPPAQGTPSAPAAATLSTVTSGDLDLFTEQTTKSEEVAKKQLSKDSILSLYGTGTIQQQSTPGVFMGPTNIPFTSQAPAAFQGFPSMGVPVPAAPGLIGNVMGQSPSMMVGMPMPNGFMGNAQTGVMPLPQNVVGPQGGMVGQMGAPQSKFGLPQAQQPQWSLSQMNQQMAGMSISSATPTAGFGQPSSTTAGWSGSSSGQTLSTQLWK

Measured: binding

human galectin-3 from pcDNA3.1-Gal-3 (from UniProt P17931 1-250)
binds: [1]

recombinant human soluble endoglin (sEng; Glu26-Gly586) (from UniProt P17813 26-586) (domain or fragment)
not listed: [1]
binds: all other assays above
